PubChem BioAssay AID504764, Drosophila RNAi Screening Center, 2011

Test: 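Genes whose knock-down alters Notch-dependent transcription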 (primary screen)
System: Drosophila Kc167 cells
Knock-down reagent: long dsRNA against Drosophila genes
Time to read-out: about 5 days (4 days dsRNA, then 24 h after transfection)
Treatment: transfection of constitutively active membrane-tethered Notch lacking the extracellular domain, read 24 h later
Measured: 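Light from a Notch-responsive E(spl)m3 luciferase reporter under active Notch, with control-promoter and no-Notch reporter wells to normalise; raw counts from paired wells a and b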
Reading the numbers: induced reporter light, run 1, well a and induced reporter light, run 1, well b: higher = more light from the Notch target reporter with active Notch; control promoter light, run 1, well a and control promoter light, run 1, well b: higher = more light from the viral control promoter (cell number, transfection, viability); uninduced reporter light, run 1, well a: higher = more light from the Notch target reporter without active Notch
Call rule: 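Hit if the duplicate-averaged log2 ratio of induced to control-promoter light gives a plate-wise z beyond ±2, or induced to uninduced beyond ±1.8; weak-control or discordant-duplicate wells dropped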
Calls: active = modifier hit (raised or lowered Notch signal); inactive = not a hit
The deposit covers about 22,000 reagents; shown is a random part of those with a known target gene and a result. In the full data, 403 (1.9%) are marked active. 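Unnormalised raw counts per well; ratio z-scores behind the hit calls and whether each hit raises or lowers signal are not deposited.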 Reagents against one gene are numbered here. Reagent sequences are not shown. Not given: the amount of reagent.

| target | reagent | induced reporter light, run 1, well a | induced reporter light, run 1, well b | control promoter light, run 1, well a | control promoter light, run 1, well b | uninduced reporter light, run 1, well a | Call |
| --- | --- | --- | --- | --- | --- | --- | --- |
| CG14957 | 1 | 62625 | 50835 | 85935 | 1.26e5 | 4750 | inactive |
| Sfxn1-3 | 1 | 1.44e5 | 1.17e5 | 1.10e5 | 1.06e5 | 8090 | inactive |
| Spn43Ab | 1 | 2.46e5 | 2.23e5 | 2.12e5 | 1.79e5 | 17475 | active |
| CG11570 | 1 | 1.07e5 | 1.07e5 | 1.23e5 | 94370 | 7120 | inactive |
| CG12902 | 1 | 2.01e5 | 1.51e5 | 2.51e5 | 2.49e5 | 14705 | inactive |
| Acbp2 | 1 | 2.01e5 | 2.01e5 | 1.79e5 | 1.50e5 | 7440 | inactive |
| Taf12L | 1 | 1.66e5 | 1.33e5 | 1.69e5 | 1.43e5 | 11155 | inactive |
| cid | 1 | 2.38e5 | 2.27e5 | 2.87e5 | 2.58e5 | 15655 | inactive |
| cid | 2 | 96345 | 95145 | 1.06e5 | 1.09e5 | 7855 | inactive |
| lncRNA:CR42646 | 1 | 91555 | 96100 | 90000 | 93380 | 4550 | inactive |
| su(Hw) | 1 | 1.22e5 | 1.17e5 | 80035 | 88045 | 11100 | inactive |
| nop5 | 1 | 31680 | 31100 | 41945 | 37630 | 1882 | inactive |
| stc | 1 | 2.11e5 | 2.34e5 | 2.10e5 | 2.45e5 | 15930 | inactive |
| CG17715 | 1 | 1.16e5 | 1.22e5 | 1.30e5 | 1.10e5 | 10555 | inactive |
| CG15443 | 1 | 2.11e5 | 1.69e5 | 2.32e5 | 2.84e5 | 11605 | inactive |
| eIF3e | 1 | 22620 | 19870 | 17535 | 16560 | 810 | inactive |
| CG15657 | 1 | 50615 | 56820 | 49520 | 73775 | 3165 | inactive |
| CG8630 | 1 | 1.90e5 | 2.27e5 | 2.26e5 | 2.15e5 | 16085 | inactive |
| Rif1 | 1 | 94255 | 1.76e5 | 2.06e5 | 2.53e5 | 17685 | inactive |
| CG7720 | 1 | 2.50e5 | 2.63e5 | 2.97e5 | 3.82e5 | 19865 | inactive |
| CG7720 | 2 | 1.92e5 | 1.49e5 | 2.92e5 | 2.96e5 | 14130 | inactive |
